The values below come from the supplement of paper PMC8866396.

± gives the standard deviation of the averaged measurements. The list shows a part of the results. Most values lie within the scatter of the assay; repeated measurements hardly agree.

The test system of one assay is IL-6-GFP PC-9GR. Description: IL-6-GFP fluorescence relative to DMSO control (fraction of control); higher = more IL-6-GFP expression. Particulars: compound concentration: 10 uM; treatment time: 48 h. As to the method:
(§1)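 IL-6-GFP-overexpressing PC-9 and PC-9GR EGFR-mutant lung cancer cells (3000 cells/well, 96-well) were treated for 48 h with each compound of the Selleck L2000 library at 10 uM. IL-6-GFP fluorescence was read on a high-content screening system, and viability by CCK-8 absorbance on a parallel plate set. Each value was normalised as compound well / DMSO control well; two independent replicates.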

Another assay concerns IL-6-GFP PC-9. Described as above. Conditions: compound concentration: 10 uM; treatment time: 48 h. As to the method: as §1

For the compound `CCOC(=O)OC1(C(=O)OCCl)CCC2C3CCC4=CC(=O)C=CC4(C)C3C(O)CC21C` (stereo not given) [Loteprednol etabonate], the figures for the IL-6-GFP fluorescence with IL-6-GFP PC-9GR and in the assay on IL-6-GFP PC-9 were 0.634 ± 0.25 and 1.14 ± 0.27, respectively.

`CNC(=O)C(NC(=O)C(CC(C)C)C(O)C(=O)NO)C(C)(C)C` (stereo not given) [Marimastat (BB-2516)]: the IL-6-GFP fluorescence in the assay with IL-6-GFP PC-9GR was 0.853 ± 0.18; in the assay with IL-6-GFP PC-9, 0.908 ± 0.071.

As for `COc1cccc2c1C(=O)c1c(O)c3c(c(O)c1C2=O)CC(O)(C(=O)CO)CC3OC1CC(N)C(OC2CCCCO2)C(C)O1` (stereo not given) [Pirarubicin], the values for the IL-6-GFP fluorescence in the assay with IL-6-GFP PC-9GR and in the assay with IL-6-GFP PC-9 were 0.986 ± 0.15 and 0.863 ± 0.066, respectively.

`CC1CC2C3CCC4=CC(=O)C=CC4(C)C3(F)C(O)CC2(C)C1(O)C(=O)COP(=O)([O-])[O-].[Na+].[Na+]` (stereo not given) [Dexamethasone Sodium Phosphate]: the IL-6-GFP fluorescence amounted to 0.81 ± 0.098 in the assay on IL-6-GFP PC-9GR and 0.853 ± 0.23 in the assay with IL-6-GFP PC-9.

Consider `Cn1c(=O)cc(N2CCCC(N)C2)n(Cc2cc(F)ccc2C#N)c1=O` (stereo not given) [Trelagliptin], for which the IL-6-GFP fluorescence with IL-6-GFP PC-9GR is 0.973 ± 0.099; with IL-6-GFP PC-9 it was 0.895 ± 0.047.

Turning to `Nc1nc(=O)c2c(CCc3ccc(C(=O)NC(CCC(=O)[O-])C(=O)[O-])cc3)c[nH]c2[nH]1.[Na+].[Na+]` (stereo not given) [Pemetrexed], the figures for the IL-6-GFP fluorescence with IL-6-GFP PC-9GR and with IL-6-GFP PC-9 were 0.884 ± 0.22 and 0.945 ± 0.053, respectively.

On to `CC(=O)OCC(=O)C1(O)C(C)CC2C3CCC4=CC(=O)C=CC4(C)C3(F)C(O)CC21C` (stereo not given) [Dexamethasone Acetate], for which the IL-6-GFP fluorescence in the assay with IL-6-GFP PC-9GR amounted to 0.952 ± 0.021; in the assay on IL-6-GFP PC-9, 0.888 ± 0.24.

In the case of `OCC1OC(OCC2OC(O)C(O)C(OC3OC(CO)C(O)C(OC4OC(CO)C(O)C(OC5OC(COC6OC(CO)C(O)C(O)C6O)C(O)C(OC6OC(CO)C(O)C(O)C6O)C5O)C4O)C3O)C2O)C(O)C(O)C1O` (stereo not given) [Lentinan], the IL-6-GFP fluorescence amounted to 0.871 ± 0.065 with IL-6-GFP PC-9GR and 0.896 ± 0.15 in the assay with IL-6-GFP PC-9.

As for `Cn1c(=O)cc(N2CCCC(N)C2)n(Cc2cc(F)ccc2C#N)c1=O.O=C(O)CCC(=O)O` (stereo not given) [Trelagliptin succinate], the IL-6-GFP fluorescence came out at 1.04 ± 0.025 in the assay with IL-6-GFP PC-9GR and 0.817 ± 0.12 in the assay on IL-6-GFP PC-9.

For `COc1ccc2cc(CCC(C)=O)ccc2c1` [Nabumetone], the IL-6-GFP fluorescence worked out at 0.567 ± 0.45 with IL-6-GFP PC-9GR and 1.03 ± 0.017 with IL-6-GFP PC-9.

As to `CNC(=O)c1cc(Oc2ccc(NC(=O)Nc3ccc(Cl)c(C(F)(F)F)c3)cc2)ccn1.Cc1ccc(S(=O)(=O)O)cc1` [Sorafenib Tosylate], the IL-6-GFP fluorescence stood at 0.973 ± 0.18 with IL-6-GFP PC-9GR and 0.886 ± 0.14 in the assay with IL-6-GFP PC-9.

Take `CC(C(=O)O)c1ccc2c(c1)[nH]c1ccc(Cl)cc12` (stereo not given) [Carprofen]: the IL-6-GFP fluorescence was found to be 0.507 ± 0.45 in the assay with IL-6-GFP PC-9GR and 1.04 ± 0.082 in the assay with IL-6-GFP PC-9.

In the case of `COc1cc(Nc2c(C#N)cnc3cc(OCCCN4CCN(C)CC4)c(OC)cc23)c(Cl)cc1Cl` [Bosutinib (SKI-606)], the IL-6-GFP fluorescence is 1.23 ± 0.11 in the assay on IL-6-GFP PC-9GR and 0.987 ± 0.087 with IL-6-GFP PC-9.

On to `Nc1c(CC(=O)[O-])cccc1C(=O)c1ccc(Br)cc1.[Na+]` [Bromfenac Sodium], for which the IL-6-GFP fluorescence in the assay on IL-6-GFP PC-9GR worked out at 0.544 ± 0.11; with IL-6-GFP PC-9, 0.746 ± 0.078.

For the compound `CC1CCC2(C(=O)OC3OC(COC4OC(CO)C(OC5OC(C)C(O)C(O)C5O)C(O)C4O)C(O)C(O)C3O)CCC3(C)C(=CCC4C5(C)CC(O)C(O)C(C)(CO)C5CCC43C)C2C1C` (stereo not given) [Asiaticoside], the IL-6-GFP fluorescence is 0.9283 ± 0.0089 with IL-6-GFP PC-9GR and 0.936 ± 0.25 with IL-6-GFP PC-9.

Take `Cc1nnc(C(C)C)n1C1CC2CCC(C1)N2CCC(NC(=O)C1CCC(F)(F)CC1)c1ccccc1` (stereo not given) [Maraviroc]: the values for the IL-6-GFP fluorescence with IL-6-GFP PC-9GR and with IL-6-GFP PC-9 were 0.777 ± 0.11 and 0.838 ± 0.19, respectively.

As for `CC(=O)OC1(C(C)=O)CCC2C3CC(C)C4=CC(=O)C=CC4(C)C3(F)C(O)CC21C` (stereo not given) [Fluorometholone Acetate], the IL-6-GFP fluorescence with IL-6-GFP PC-9GR was determined as 0.823 ± 0.14; in the assay on IL-6-GFP PC-9, 0.955 ± 0.0099.

On to `CCCCOc1ccc(C(=O)CCN2CCCCC2)cc1.Cl` [Dyclonine HCl], for which the IL-6-GFP fluorescence in the assay with IL-6-GFP PC-9GR came out at 0.827 ± 0.21; with IL-6-GFP PC-9 it was 0.844 ± 0.22.

Turning to `COc1cc(C2Oc3ccc(C4Oc5cc(O)cc(O)c5C(=O)C4O)cc3OC2CO)ccc1O` (stereo not given) [Silymarin], the IL-6-GFP fluorescence with IL-6-GFP PC-9GR is 0.702 ± 0.34; in the assay with IL-6-GFP PC-9, 0.752 ± 0.13.

With `CC(C)Cc1ccc(C(C)C(=O)OCc2ccccn2)cc1` (stereo not given) [Ibuprofen piconol], the IL-6-GFP fluorescence was found to be 0.834 ± 0.099 in the assay with IL-6-GFP PC-9GR and 0.818 ± 0.028 with IL-6-GFP PC-9.

Turning to `NC(CC(=O)N1CCn2c(nnc2C(F)(F)F)C1)Cc1cc(F)c(F)cc1F.O.O=P(O)(O)O` (stereo not given) [Sitagliptin phosphate monohydrate], the figures for the IL-6-GFP fluorescence in the assay on IL-6-GFP PC-9GR and in the assay on IL-6-GFP PC-9 were 0.738 ± 0.13 and 1.13 ± 0.2, respectively.

For the compound `CN(C)CCOC(c1ccc(Cl)cc1)c1ccccn1.O=C(O)/C=C\C(=O)O` (stereo not given) [CarbinoxaMine Maleate], the IL-6-GFP fluorescence came out at 0.551 ± 0.4 in the assay on IL-6-GFP PC-9GR and 1.006 ± 0.0083 in the assay on IL-6-GFP PC-9.

For `CCOC(=O)c1ccc(OC(=O)CCCCCNC(=N)N)cc1.CS(=O)(=O)O` [Gabexate Mesylate], the IL-6-GFP fluorescence in the assay with IL-6-GFP PC-9GR came to 0.808 ± 0.1; in the assay with IL-6-GFP PC-9 it was 0.938 ± 0.23.

For the compound `CCC1(O)C(=O)OCc2c1cc1n(c2=O)Cc2cc3c(CN(C)C)c(O)ccc3nc2-1` (stereo not given) [Topotecan], the figures for the IL-6-GFP fluorescence in the assay with IL-6-GFP PC-9GR and in the assay with IL-6-GFP PC-9 were 1.43 ± 0.55 and 1.33 ± 0.26, respectively.

Regarding `N#Cc1cc(NC(=O)C(=O)O)c(Cl)c(NC(=O)C(=O)O)c1.NC(CO)(CO)CO.NC(CO)(CO)CO` [Lodoxamide Tromethamine], the IL-6-GFP fluorescence in the assay with IL-6-GFP PC-9GR stood at 0.82 ± 0.5; in the assay with IL-6-GFP PC-9, 0.427 ± 0.11.
